According to patent US20150272161A1, “CHEWING GUM PRODUCTS CONTAINING (R)-2-[((1R,2S,5R)-2-ISOPROPYL-5-METHYLCLOHEXANECARBONYL)-AMINO]-ACETIC ACID ISOPROPYL ESTER” (WM. WRIGLEY JR. COMPANY, priority 2011, published 2015):

Experiment: Sensory panel: bitterness intensity of solutions of cooling agent in 5% sucrose
Assay type: in vivo, human
Details: for Average Bitterness Intensity Score: five to six panelists
Experimental: Table 3 and FIG. 2 show test results of a trained sensory panel of five to six panelists where the panelists were asked to rate the bitterness intensity of solutions prepared with different concentrations of WS-5 and Gly-OiPr.
The sample solutions used in Table 3 and FIG. 2 were prepared with 5% sucrose solutions using distilled deionized water with differing concentrations (in ppm) of WS-5 and Gly-OiPr.

SMILES	Average Bitterness Intensity Score (25 ppm in 5% sucrose solution)	Average Bitterness Intensity Score (50 ppm in 5% sucrose solution)	Average Bitterness Intensity Score (100 ppm in 5% sucrose solution)	Average Bitterness Intensity Score (200 ppm in 5% sucrose solution)	Average Bitterness Intensity Score (400 ppm in 5% sucrose solution)	Average Bitterness Intensity Score (500 ppm in 5% sucrose solution)	Change of bitterness intensity on doubling the concentration (concentration doubled from 200 ppm to 400 ppm)
CCOC(=O)CNC(=O)C1CC(C)CCC1C(C)C (stereo not drawn) [WS-5, ethyl ester of N-[[5-methyl-2-(1-methylethyl)-cyclohexyl]carbonyl] glycine]	1.67	2.17	3.17	4.17	5	5.5	–
CC1CCC(C(C)C)C(C(=O)NCC(=O)OC(C)C)C1 (stereo not drawn) [Gly-OiPr, [(2-isopropyl-5-methyl-cyclohexanecarbonyl)-amino]-acetic acid isopropyl ester]	1.6	2.4	2.4	2.8	2.8	–	remained the same
